Assay results reported in article PMC3458821.

Protein sequences, listed by entry. Tags and fused reporters are not part of them. Lines headed by an entry give the natural chain unless they say otherwise; changes in a name come on top.
UniProt P53197: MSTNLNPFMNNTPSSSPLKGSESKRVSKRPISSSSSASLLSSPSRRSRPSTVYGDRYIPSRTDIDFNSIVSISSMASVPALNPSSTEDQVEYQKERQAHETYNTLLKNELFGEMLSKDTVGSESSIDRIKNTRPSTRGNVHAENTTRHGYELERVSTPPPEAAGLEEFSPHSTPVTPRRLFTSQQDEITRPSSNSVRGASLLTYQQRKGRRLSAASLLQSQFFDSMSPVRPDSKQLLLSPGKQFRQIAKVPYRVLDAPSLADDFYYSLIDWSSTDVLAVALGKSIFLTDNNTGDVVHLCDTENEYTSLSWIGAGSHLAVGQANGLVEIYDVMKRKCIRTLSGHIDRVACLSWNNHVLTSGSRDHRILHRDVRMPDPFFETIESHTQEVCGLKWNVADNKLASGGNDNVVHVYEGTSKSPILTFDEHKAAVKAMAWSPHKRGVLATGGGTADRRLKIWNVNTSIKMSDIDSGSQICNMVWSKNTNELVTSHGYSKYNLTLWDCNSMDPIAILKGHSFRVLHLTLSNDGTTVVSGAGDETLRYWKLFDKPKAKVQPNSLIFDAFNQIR

Biological target: Cdh1-ΔN200-D12 (S. cerevisiae) (UniProt P53197)
Test: two-hybrid; pJ69-4a strains with bait plasmids mated with pJ69-4α strains with activation domain plasmids; diploids struck onto plates lacking leucine, tryptophan, histidine and adenine; growth indicates interaction

Binder | binding
Pdr3 411-976 (two-hybrid library clone) (domain or fragment, UniProt P33200 411-976) LCYAYYNVTLYHMLDINTLDYLEILVSLLEIQNEIDERFGFEKMLEVAVTCSTKMGLSRWEYYVGIDENTAERRRKIWWKIYSLEKRFLTDLGDLSLINEHQMNCLLPKDFRDMGFINHKEFLTKIGTSSLSPSSPKLKNLSLSRLIEYGELAIAQIVGDFFSETLYNEKFTSLEVSVKPTIIRQKLLEKVFEDIESFRLKLAKIKLHTSRVFQVAHCKYPEYPKNDLIEAAKFVSYHKNTWFSILGAVNNLIARLSEDPEVITEQSMKYANEMFQEWREINQFLIQVDTDFIVWACLDFYELIFFVMASKFYVEDPHITLEDVINTLKVFKRITNIISFFNNNLDEKDYDCQTFREFSRSSSLVAISIRIIFLKYCYAEQIDRAEFIERLKEVEPGLSDLLREFFDTRSFIYRYMLKSVEKSGFHLIIRKMLESDYKFLYRDKLATGNIPDQGNSSQISQLYDSTAPSYNNASASAANSPLKLSSLLNSGEESYTQDASENVPCNLRHQDRSLQQTKRQHSAPSQISANENNIYNLGTLEEFVSSGDLTDLYHTLWNDNTSYPFL | no binding
Acm1 (protein, UniProt Q08981 1-209) MISPSKKRTILSSKNINQKPRAVVKGNELRSPSKRRSQIDTDYALRRSPIKTIQISKAAQFMLYEETAEERNIAVHRHNEIYNNNNSVSNENNPSQVKENLSPAKICPYERAFLREGGRIALKDLSVDEFKGYIQDPLTDETIPLTLPLGDKKISLPSFITPPRNSKISIFFTSKHQGQNPETKISRSTDDVSEKKVVRKLSFHVYEDE | binds
Fir1 (two-hybrid prey) (protein, UniProt P40020 1-876) MSLPVTPVKSKVCSTLSIQHEMDHDQCRDVLCPRENLLAINRTNNIESVAIPRQRSSKNKKPHEHTQSQVRFSIPDPNEISQDSPLKIVFPKSGNETERRMSTSSLLMNSHGHLVDMHSKILVDVPKEVWKFHHNRRKKCESRHRKTRSDVRSNTSSSGKEPNHSRSKSLQSIIVDTMNTYRATEVETSINENTSNISQVSPLNLSFDRPPPLTPEKNLYLTPESPLNRYHLPVPLEISLPPYLSPQNKDKKRSSLVYDGDGYSQFQEGNTSSSTESSLEQPSSSYSDEDDSIPYAHHDVSFELNNADADKLLGIDENANVNLKIQRRNLKNPQHIKSKTDRECEEKNTEKNVSLKILSTPNKLIDIPDLEHMKSPPSTGLNGTLKFFQQFEPSEEPTSPTRQVNPESLDKLDMSFKFPSSTTNNNVDKVHENRNSGDTNNEDFLKVDTSPVNQSFESRRQMLIDLQKSPTNNNPRIHKHRRSRSVHNIDDISLNFEATSTPPAPTSAPSIPVEHSNPCTSIEIPKRSPLRFTSSPKTSDIPPEAQSPKNGSFLQEISVPSIQIIPDESISHTREPSPSLIECPEDENEAFSTEVADHSIAIISETKSVPSIEPFKPLSSFNSFGQEIQNKEPTPLNQTPTDLIGKQRNCVNPHSIPFSVLSSNSQSSQSGSSKSSYNSEFSSNTAITDTTSQPSVTINRSTLEHNFIEEKRSIKNLGHGPPSQKNNYSFPRNKNTPSNRHDLDFNTIYEKRDGKMVEVILLDEDEDVGLKNNDISRTRVCHAQKAKNEQQKKRLSHCNEILGMCDKTADDAKRIIYQLVNEKHKFSEKGQQTKPKKSRVLPPLPFPLYDEKGNSLIPNKYQSSIHNDIPSHRKLK | no binding

Further lines, results first:

binding | Binder
no binding | Tos4 (two-hybrid prey, entire open reading frame) (protein, UniProt Q06266 1-489) MSSQFPSSPYRTVDPYSPPNYKQQPNCPSSNYEKAGKTASESIGNFGKGDYPTPFPSSSIGRVSSPVRSNKVDAIPSSPAFPGQLAETSPKFSSKLSSPSRHTRVINAELDPSKISTITVGRNSSQCDVALCKNKFISRVHASITYLPQTNEVKIHCFSMNGLIVTYRKQFDCYQLKDTMNNNNRAYRLVPRFSNEKCVKEIQDEGGFINFTLEEGDTVYMTYYKGIMLDFRQVLLRISLKEKNSSSEPLRFEKKAEFESESETKHMGSIRKHPLIFTDTSMDRPKKILKDSNKISIGSDSGVAERMLNHFLNSKSSPLSSVSSVDHEEQTLRQDSLSSDKNPMTMKKPKLNKRVLPSKPKKSVKENLDELSRRNIDVMHLQHILTNHLAFANVQQTPLFQLQQVNSQISELSRDELRSILSDAKCVGVIYRHGKDAAGKPLDEEYFYDLENDDDYERRNLVSSLKGGRTGLRSCRRTHKQYFWKKPAK
no binding | Ybr138C (two-hybrid prey) (protein, UniProt P38277 1-524) MEKDQIQPRVLESVDTNSLSLLSSNTSSNMNSNTNNKLSIIASDISTGSVLSRPLTPPVVQDIENNSMLQWQFEKKEFIFDSNSTPSKQAKPLQRNSPYQGNSQSENQNQQLLNVRKRRSQLIGAKPKIPSKLYQSVSKLDLIDDKSFTSLPIAPPCNIETNEDDSGNNEYNNNKKRPRLNPVNELRVHNNKRNRYVSYGPSLDTKNYELTENTSQDIPPLVLVEDYIPYTQSKSTKKMVSISDLKSKLSKRRDNHIPLRVKNSYSEINKETNRNSFEPNSLTLIPHILRNTEENRDESNNPLDFIKEEIEISDISIPNSIENMVVNLVNIPSSNKSYDDLYLSELNVHSQLRKCVICEKALYEISSRLLNSGYYKEIVCEQCTVRYEEAAKIFENCEFESSMDESNLSSGTFSDLENSAEPFHLSTDVPKKINRHIEDNKIDLKKEISKKKDSFSKELIERLQLQLLENDKSIKHHFNKDAMGSKSMNWFLEARRKLKWKWRINGLLPHFLRNQNSDRLNFQP

No constants are given. Whether binding was seen depends on the method and setting. Binding can be weak; no strength is given.
